Reference: the supplement of paper PMC12764529
± gives the half width of the 95% confidence interval. The two proteases of the assay disagree for many of these sequences.

Assays:
[1] = folding stability dG unfold (combined trypsin and chymotrypsin); higher = more stable
Outline: (§1)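 Digests were run with trypsin and chymotrypsin at 11 concentrations in threefold dilutions, plus a no-protease condition, on designed mini-proteins in a PA-tagged cDNA display construct. The mini-proteins were under 80 residues, had no cysteine, and were kept only when AlphaFold2 dimer inter-PAE was above 15. After sequencing, Bayesian fitting of the counts gave K50, from which unfolding free energy was derived against a sequence-predicted unfolded-state K50 and a shared folded-state K50, per protease or combined.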

[2] = folding stability dG unfold from chymotrypsin proteolysis; higher = more stable
Outline: as §1

[3] = folding stability dG unfold from trypsin proteolysis; higher = more stable
Outline: as §1

| Sequence | folding stability dG unfold [1] [kcal/mol] | folding stability dG unfold [2] [kcal/mol] | folding stability dG unfold [3] [kcal/mol] |
| --- | --- | --- | --- |
| SAGGSAPEEKPVVKTVTIKVTNEDGSTYEAEIVFTPDKVFVRITFPDGYVFTFDKDGKLVKVEKLKSAGGSA [r2_68_TrROS_Hall] | 4.79 ± 0.32 | 5.06 ± 0.19 | 2.76 ± 0.19 |
| SAGGMLVVKIEVENKDGKKETIEIDLSKLSEEEIKKLLKELEKKGYKVKVEIKPALSEEELKKLKEKKSAGG [r13_251_TrROS_Hall] | 2.25 ± 0.4 | 2.78 ± 0.099 | 0.193 ± 0.17 |
| SAGGSAGGSAKKKKIKNKKKKVFKIELKIEVELKKLPNGTVVLKAKIEINGKKYELELVLKPSAGGSAGGSA [r18_335_TrROS_Hall] | 4.38 ± 0.39 | 4.6 ± 0.15 | 2.41 ± 0.14 |
| SAGGSAGGSAGGSWILIPIPNGYLFIIRITFVWPTPNGKPYEPEIDIHIMPAEDLEDFISAGGSAGGSAGGS [r4_238_TrROS] | 5.01 ± 0.35 | 5.52 ± 0.24 | 3.48 ± 0.23 |
| SAGGMVRVKATFLKKIGDRWETVTVDIVTDDPEEGIAAAKARAEAEGWELLEVTIYPTGDPEVAEKAASAGG [r13_949_JUSTAS] | 4.73 ± 0.13 | 5.22 ± 0.14 | 2.37 ± 0.071 |
| SAGGSAGGSAGKVTLTIPFTNEDGTKYIAEFTFDELEVEEDVEIKIVSLGENFDLVLKPESAGGSAGGSAGG [r11_733_TrMRF] | 1.63 ± 0.1 | 1.67 ± 0.041 | 1.47 ± 0.069 |
| SAGGSAGGSNWYQFTIPFPIPPDEPVEIKLPDGWEIHEIPPNSGRITIYMPMNNMDAIKEAIGSAGGSAGGS [r12_476_TrROS] | 1.19 ± 0.056 | 1.01 ± 0.045 | 1.214 ± 0.012 |
| HIEVTPNGSIYIMFPADDLKDLPPGDPLELKLKIYIPGGYKIKVTWEVVPDGWIMIRIKVEPIPVSPEQNKS [r1_394_TrROS] | 5.33 ± 0.34 | 5.65 ± 0.18 | 2.34 ± 0.11 |
| SKTYLVKVTIEYGGKTIEIEVEVETLEEALAAVRAALPPEERAQLPPDAKVTVEVYELPEVDEETGELLESA [r9_111_TrROS_Hall] | 3.84 ± 0.059 | 4.2 ± 0.048 | 2.83 ± 0.07 |
| SAGMKEELKEAIEKLFKEKGINVSEVKVEKLPNGEYKVTVKLPDGKPLFEVPLPPSAESAEIIIEKIKKSAG [r5_352_JUSTAS] | 3.08 ± 0.57 | 3.79 ± 0.86 | 0.846 ± 0.14 |
| SAGGSAGGSAGSTVVTEVEVSEELPEGEVIPTTITTETLPTGKVVRVTTPDGTVVSTSSVSAGGSAGGSAGG [r17_274_JUSTAS] | 1.02 ± 0.11 | 1.41 ± 0.1 | -0.702 ± 0.17 |
| SAGGSAGGSAGGSIPPDVEVEVVETLEVEGDGKTYRYTRISVVRVTSVTPASPERIALASAGGSAGGSAGGS [r10_175_JUSTAS] | 3.31 ± 0.2 | 4.31 ± 0.084 | 1.75 ± 0.069 |
| SAGGSAGGSMKLKPGEKVKVKVVDPETGEVFEAEVVDGKIYITLPNGEKKEVSAEEIVHVEKVSAGGSAGGS [r20_35_TrROS_Hall] | 1.66 ± 0.14 | 2.23 ± 0.026 | -0.399 ± 0.11 |
| SAGGSAKKKGKKKKIYIVKIEVTNPNGEKKTLTLEFESEEEAEKAAKELAKKGYKVKIELIKKEEISAGGSA [r15_906_TrROS_Hall] | 3.5 ± 0.6 | 4.36 ± 0.38 | 1.49 ± 0.074 |
| MRLYLVKVEIRREEVDPETGEVREEKLELTVLVREEDEEALEKAEELARKLAEEEGIKEVKVEVVELPAEES [r1_346_TrROS_Hall] | 2.47 ± 0.25 | 2.62 ± 0.079 | 2.3 ± 0.09 |
| SAGGSAKKPKVKKIVLTVKDKETNETYTITITKNEDGSISITVTSKNGKKLSKEEIEKLLKKLGIESAGGSA [r15_872_TrROS_Hall] | 3.58 ± 0.18 | 3.93 ± 0.15 | 1.83 ± 0.11 |
| SAGGSAAKVVSVEYNPETNLYVVRVTFDGPEKETVEIVFESLEDLEAALAALPDDVTSVEIRRLKPSAGGSA [r15_589_TrROS_Hall] | 3.06 ± 0.068 | 3.57 ± 0.053 | 1.23 ± 0.023 |
| SAGGSAYKITVTWWVKSAEEAVDEIRSIARSWGMEIENIEIEWNPPNGWYWVEYTIEIKPPPPGQLSAGGSA [r15_254_TrROS] | 3.65 ± 0.2 | 4.98 ± 0.15 | 2.83 ± 0.081 |
| SASIVVPLAELEALVAAVPGLAAARDPATGLLTLTDPATGARTLVTVTTDPNDPNVVTVEVTTTPLPPASAG [r14_604_JUSTAS] | 1.21 ± 0.18 | 1.89 ± 0.048 | -0.478 ± 0.36 |
| SAGGIDLSKLPKNSIVVITKVKVYPTKVGEPDGEGEGYVEVELRVFRNIPPTGKILSSPLPVKFKIASAGGS [r8_486_TrMRF] | 1.17 ± 0.12 | 0.987 ± 0.25 | 1.19 ± 0.04 |
| SAGGSAGGSAGGAERLPDGRWRFTLRYRPGEDGEPEIVVEVEVDVPPGLAELPVVVVTGSAGGSAGGSAGGS [r10_672_TrMRF] | 2.6 ± 0.13 | 3.4 ± 0.068 | 0.542 ± 0.086 |
| SATITVEYDKETGTITVTVKVKDKETGEELSAEEIAKKLKELFPEAEIVKIEKLPDGTVKITIKLKKEKKSA [r9_87_TrROS_Hall] | 2.69 ± 0.18 | 3.14 ± 0.14 | 0.826 ± 0.12 |
| SAGGKKPKVKITAKVTKVTVTKNEDGTYTVTVYVNGKPVATFTFSKEELDKLLKSLKPGDTVEITLESAGGS [r8_41_TrROS_Hall] | 4.53 ± 0.21 | 4.76 ± 0.14 | 1.58 ± 0.058 |

Looked up one by one from the list above, 2 records:

| Sequence | folding stability dG unfold [1] [kcal/mol] | folding stability dG unfold [2] [kcal/mol] | folding stability dG unfold [3] [kcal/mol] |
| --- | --- | --- | --- |
| SAGGSAGGSAGGSIPPDVEVEVVETLEVEGDGKTYRYTRISVVRVTSVTPASPERIALASAGGSAGGSAGGS [r10_175_JUSTAS] | 3.31 ± 0.2 | 4.31 ± 0.084 | 1.75 ± 0.069 |
| HIEVTPNGSIYIMFPADDLKDLPPGDPLELKLKIYIPGGYKIKVTWEVVPDGWIMIRIKVEPIPVSPEQNKS [r1_394_TrROS] | 5.33 ± 0.34 | 5.65 ± 0.18 | 2.34 ± 0.11 |
